# Measurements: the supplement of paper PMC3334620
# The full ranking holds about 33,000 sequences; the median of “E-score (-0.5 to 0.5)” is about -0.015, and the highest 2% start at about 0.3. The list shows a part of the results.
# Molecular target: T1, Abf1 (UniProt P14164)
# T1 sequence: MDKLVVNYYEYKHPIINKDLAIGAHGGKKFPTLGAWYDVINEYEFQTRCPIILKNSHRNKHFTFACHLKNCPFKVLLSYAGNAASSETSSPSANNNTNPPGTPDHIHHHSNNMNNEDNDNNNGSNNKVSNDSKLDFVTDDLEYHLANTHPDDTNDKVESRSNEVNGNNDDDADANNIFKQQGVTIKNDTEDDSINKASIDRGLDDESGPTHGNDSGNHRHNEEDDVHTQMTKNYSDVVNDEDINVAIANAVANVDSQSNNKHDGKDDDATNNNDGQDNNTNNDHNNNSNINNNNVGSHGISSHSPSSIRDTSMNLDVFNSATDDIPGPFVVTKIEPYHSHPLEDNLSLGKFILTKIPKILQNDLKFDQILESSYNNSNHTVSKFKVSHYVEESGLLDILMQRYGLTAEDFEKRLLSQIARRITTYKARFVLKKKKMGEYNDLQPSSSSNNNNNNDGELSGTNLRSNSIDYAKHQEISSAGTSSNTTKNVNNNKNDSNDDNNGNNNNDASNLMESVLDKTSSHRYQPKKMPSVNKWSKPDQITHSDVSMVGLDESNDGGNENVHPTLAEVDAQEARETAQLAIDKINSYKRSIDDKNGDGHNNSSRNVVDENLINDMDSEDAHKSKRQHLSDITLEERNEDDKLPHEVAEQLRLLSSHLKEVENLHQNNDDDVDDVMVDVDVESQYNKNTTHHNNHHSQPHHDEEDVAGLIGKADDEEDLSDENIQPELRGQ
# Assay: PBM E-score (8-mer binding enrichment) (E-score (-0.5 to 0.5)); higher = stronger / more preferred TF binding
# Conditions: protein concentration: 200 nM; construct: GST-full length
# How it was run: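 PURExpress in vitro transcription/translation supplied GST-tagged yeast transcription factors, either full-length or DNA-binding domain. Applied at about 100-200 nM to universal all-10-mer Agilent arrays double-stranded by primer extension, the bound protein was detected with fluorescent anti-GST. E-scores, modified Wilcoxon-Mann-Whitney statistics, were given by the Universal PBM Analysis Suite to ungapped eight-base words pooled with their reverse complements after masliner normalisation.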
row,Sequence,PBM E-score
1,ATGCCTTG,-0.0634
2,CCAGGGCG,-0.116
3,CTCCACGA,0.241
4,ACATCTGG,-0.0043
5,GAAGGAGC,-0.324
6,GCCCCACA,-0.232
7,AAAGAGCG,-0.155
8,AACAAGCC,-0.114
9,GCTATTCC,-0.294
10,CGTCCTTA,0.108
11,GCGGGTCC,-0.227
12,CGCGCTCC,-0.0773
13,AACTCCGG,-0.0722
14,GAGTGCTA,0.0135
15,ATCTATAG,0.0263
16,CTGATCCA,0.0639
17,ACATCAAG,0.0995
18,TGAACCAA,0.0858
19,AAATCAAA,-0.0497
20,ATCGCTAC,0.0926
21,AGTTACCG,0.0874
22,ACGGTATG,0.221
23,AGTTTGTC,0.124
24,CATATTCG,0.132
25,GTAGACAA,0.162

row,Sequence,PBM E-score
1,GCGTATAA,0.154
2,CTGCCAGC,-0.111
3,CCAGAGTA,-0.132
4,ACTGCAAG,-0.0535
5,TCTTAGAA,0.0979
6,CACTTATA,0.145
7,GGAGAGTA,0.0316
8,ACTTTTGA,0.0196
9,ACCATCGC,0.128
10,ACACACTG,-0.0954
11,CGACTTCA,0.0956
12,ACAATACG,0.0997
13,CCCAACCG,-0.0379
14,AGGATTGG,-0.0614
15,AGAAGCAA,-0.0204
16,AACCGCTC,-0.0425
17,AGAGATCG,-0.0883
18,CACAAGTA,-0.117
19,CATGTAAG,-0.112
20,CTAAGGCC,-0.0311
21,AATCCACT,0.0105
22,GCCTCGCA,-0.0633
23,ACGTGTCT,0.194
24,CCGAGGAA,-0.149
25,AGACAACG,-0.0418

row,Sequence,PBM E-score
1,CGGATGAG,-0.0476
2,ACGGTAGA,0.0612
3,AAAAGAGA,0.126
4,AATTATAC,0.175
5,ACCCATCG,-0.073
6,CCTACACA,-0.0995
7,ATGCCGGG,-0.169
8,ATGAGCAG,0.0855
9,ACTTTGCG,-0.0468
10,ACCATCCG,-0.189
11,TCAGCTGA,0.0671
12,AACATCCG,-0.0506
13,AACTTTGC,-0.125
14,CGAGTTTA,-0.0636
15,GTTGCTTA,0.0506
16,CCAAATTA,0.0834
17,AAACCGAA,-0.0436
18,CCCTAACG,0.0374
19,CCACTTTA,-0.135
20,GCGTGTTA,0.0149
21,CAATGACC,0.0736
22,GCGTGATA,0.353
23,CTGAGGTA,-0.0312
24,ACACATAT,0.0254
25,CACTAAGG,0.0132

row,Sequence,PBM E-score
1,ACAGTGCA,-0.0665
2,CACGGATA,0.285
3,ACTTCATA,0.0634
4,AATAGCCG,-0.0728
5,AAAGTGCC,-0.148
6,GCTATTGA,-0.0794
7,CATTGTTC,-0.0255
8,CGGATTGC,-0.00018
9,AGCGCAAC,-0.0267
10,CACTTCAC,-0.0873
11,TCAAACAA,-0.127
12,ATGTTCTG,0.093
13,CCATTCCG,-0.126
14,AAGTCAAG,-0.206
15,CTTTGAAC,0.00842
16,GCATTAGC,-0.038
17,CGGTCGAA,-0.0367
18,CAGTCTGA,0.0216
19,ATTCTCCC,-0.0116
20,GGACCTCC,-0.116
21,AATAAGGC,-0.0637
22,GAGAAATA,0.211
23,ATCCAGAA,0.0109
24,ATCGCCTA,-0.00103
25,GGGTACCA,-0.168

row,Sequence,PBM E-score
1,ACAGAGTA,-0.0897
2,ATTAAGAA,0.233
3,CCGTATAA,0.418
4,CCGGGGGC,-0.286
5,ACAGAGCT,-0.118
6,CAGTCAGA,0.00787
7,TACCTTAA,0.105
8,GACTATAC,0.111
9,ACGTTTTA,0.208
10,CCCGTTTA,0.233
11,CACCCCAA,0.104
12,ACAAATAG,0.157
13,AAATCGTT,0.239
14,CCCTGCCA,-0.119
15,CCAGGCAG,-0.25
16,AATACACT,0.0678
17,GCCTTTAC,-0.0351
18,GGTATTGA,0.00996
19,AGTGCTTA,-0.167
20,CTTGCCAC,0.0137
21,GTTGGGCA,0.0171
22,AGTGGGCC,-0.21
23,GGTCTATA,-0.0673
24,CTCCTATC,0.0243
25,ATGCGGGA,-0.12

# Not a retest: an excerpt of the list.
row,Sequence,PBM E-score
6,CACTTATA,0.145
7,GGAGAGTA,0.0316
8,ACTTTTGA,0.0196
9,ACCATCGC,0.128
10,ACACACTG,-0.0954
11,CGACTTCA,0.0956
12,ACAATACG,0.0997

# (cont.)

row,Sequence,PBM E-score
1,ATTTTAAA,0.182
2,GTGTAAAA,0.161
3,AAGTAGGT,-0.0305
4,ACATCCTA,0.0617
5,CAAGGCTA,0.0473
6,CTCGCGCC,-0.141
7,AGCGACTA,0.0386
8,GTGCGTGA,0.172
9,AATGCGTA,0.125
10,ACTCTTTA,0.0112
11,CCAGCGAC,0.0401
12,AAAAGACC,-0.234
13,CATGCAAC,0.0643
14,AGTATAGG,-0.0938
15,CTAATAAC,0.219
16,ATGCCGCC,-0.0724
17,CTTGCATC,-0.267
18,ATCGTCGG,0.218
19,ACTCGTTC,0.00912
20,ACTGCGTC,-0.114
21,CTTGCGAA,0.145
22,ACGGAAAT,0.276
23,GAACGCAA,0.0976
24,ACCCAGGT,-0.268
25,AACAAAAA,0.153

row,Sequence,PBM E-score
1,AGGTTAGG,-0.0491
2,GCGAGTCA,0.0147
3,CGCAACTC,-0.115
4,TAGCACCA,-0.111
5,ATCACGCG,0.373
6,AAGGGCCC,-0.291
7,AAAAGGTG,0.0493
8,ATACTAGG,-0.161
9,ACCAGCGT,-0.275
10,CCCAATCG,-0.13
11,GATGATAA,0.36
12,AACTGAGA,0.0232
13,ATTCAAGG,-0.14
14,GGGCAACA,-0.173
15,CACAAGCA,-0.0969
16,AGAAGTTA,0.0198
17,AGGCCCGG,-0.332
18,CCCCCGAG,-0.245
19,AGCGTACA,-0.121
20,ATCATGGG,0.00172
21,ACAAGGCC,-0.152
22,CTTATACA,-0.11
